## Results of single-concentration screens

Mtb cholesterol medium: 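Phenotypic screen: M. tuberculosis growth, cholesterol and DPPC medium, 4 days; the read-out is not stated. Compounds at 50 µM. The record gives no direction; compounds that gave an IC50 in retests scored well above the rest, so higher reads as more growth inhibition. Size under these conditions: about 69,000 compounds, about 370 of them at 50% or above in at least one test.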
Mtb glucose medium: 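Phenotypic screen: M. tuberculosis growth, glucose 7H9 medium, 3 days; the read-out is not stated. Compounds at 50 µM. The record gives no direction; compounds that gave an IC50 in retests scored well above the rest, so higher reads as more growth inhibition. About 69,000 compounds were tested under these conditions; 1.1% (about 760) showed 50% or more at least once.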

Values are the deposited “Percent Effect”, in %.
The record does not define 0% and 100%; most values in the screen are far below 50% and negative numbers occur (in some assays of this library far below -100).
The compounds are a random part of those screened.
Two or more numbers in one place are separate tests of the same structure; such repeats can differ widely.

{"compound": "COc1cc(C)nc(N2CCN(C(C)c3nc(C4CC4)no3)CC2)n1", "stereo": "configuration not stated", "Mtb cholesterol medium": 12.25, "Mtb glucose medium": 20.27}
{"compound": "COC(=O)CN1CCCn2nc(CCC(=O)N3CCCC3)cc2C1", "Mtb cholesterol medium": -20.15, "Mtb glucose medium": 6.252}
{"compound": "CCOc1cccc(CCNC(=O)NC2CCc3[nH]ncc3C2)n1", "stereo": "configuration not stated", "Mtb cholesterol medium": -17.13, "Mtb glucose medium": -27.19}
{"compound": "COc1ccc(-c2noc(C(N)CCSC)n2)cc1", "stereo": "configuration not stated", "Mtb cholesterol medium": -27.45, "Mtb glucose medium": -22.05}
{"compound": "CC(C)Oc1ncc(C(=O)N2CCCC(C(=O)O)C2)cc1Cl", "stereo": "configuration not stated", "Mtb cholesterol medium": -31.71, "Mtb glucose medium": -16.27}
{"compound": "CCc1nc(CCNC(=O)NC2CCC(=O)N(C)C2)sc1C", "stereo": "configuration not stated", "Mtb cholesterol medium": -5.896, "Mtb glucose medium": 10.75}
{"compound": "Cc1occc1C(=O)N1CC(C(=O)N2CCOCC2)C2(CCOCC2)C1", "stereo": "configuration not stated", "Mtb cholesterol medium": "-7.082 and -28.31", "Mtb glucose medium": "-6.08 and -8.2"}
{"compound": "[H][C@]12CC[C@]([H])(CN(C(=O)c3ccncc3)C1)N(C(=O)N1CCOCC1)C2", "Mtb cholesterol medium": -24.31, "Mtb glucose medium": -19.59}
{"compound": "CCC(CC)NC(=O)Cn1cc(C(N)=O)c(-c2ccccc2)n1", "Mtb cholesterol medium": -25.3, "Mtb glucose medium": -31.69}
{"compound": "Cc1nc(C)n(CC2CCCN(CC(=O)NC3CCOCC3)C2)n1", "stereo": "configuration not stated", "Mtb cholesterol medium": -28.59, "Mtb glucose medium": -26.45}
{"compound": "CCNC(=O)NC(=O)CNC1(c2noc(C)n2)CCCCC1", "Mtb cholesterol medium": -12.92, "Mtb glucose medium": "-8.11 and -12.06"}
{"compound": "Cc1cc(C)n(CCCN(C)C(=O)[C@H]2CCCO2)n1", "Mtb cholesterol medium": 0.9706, "Mtb glucose medium": "-2.716 and 10.46"}
{"compound": "[H][C@]12CC[C@]([H])(CN(C(=O)N(C)C)C1)N(Cc1nnc(C3CC3)o1)C2", "Mtb cholesterol medium": -14.65, "Mtb glucose medium": -21.76}
{"compound": "CC(=O)c1cnc(N(C)Cc2cnc3ccccc3n2)nc1C", "Mtb cholesterol medium": -7.011, "Mtb glucose medium": "-6.982 and -8.829"}
{"compound": "CC(C)NC(=O)C(C)S(=O)(=O)c1cc2c(cc1Cl)OCCO2", "stereo": "configuration not stated", "Mtb cholesterol medium": -0.8214, "Mtb glucose medium": 3.789}
{"compound": "Fc1ccccc1OC1CCN(CCn2cc3ccccc3n2)CC1", "Mtb cholesterol medium": 53.36, "Mtb glucose medium": 52.51}
{"compound": "Fc1ccc(OCCCNC2=NCCCN2)cc1.I", "Mtb cholesterol medium": 11.99, "Mtb glucose medium": -1.727}
{"compound": "OC(CNc1cncc(OCc2ccccc2)n1)c1ccco1", "stereo": "configuration not stated", "Mtb cholesterol medium": -17.59, "Mtb glucose medium": -14.31}
{"compound": "CC(C)CC(NC(=O)c1ccc[nH]1)C(=O)N1CCC(CO)CC1", "stereo": "configuration not stated", "Mtb cholesterol medium": -11.61, "Mtb glucose medium": 0.1927}
{"compound": "COCC1c2c(cnn2C)CCN1C(=O)c1cscn1.O=C(O)C(F)(F)F", "stereo": "configuration not stated", "Mtb cholesterol medium": -3.557, "Mtb glucose medium": -9.658}
{"compound": "CCC(CN1CCCC1)NC(=O)Cc1c(C)[nH]c2c(C)cc(C)cc12.O=C(O)CC(O)(CC(=O)O)C(=O)O", "stereo": "configuration not stated", "Mtb cholesterol medium": 17.19, "Mtb glucose medium": 25.37}
{"compound": "COc1ccccc1CN(C)C(=O)c1cc(CN2CCC(O)CC2)on1", "Mtb cholesterol medium": -22.2, "Mtb glucose medium": "-2.895 and -8.283"}
{"compound": "O=C(CCn1ccc2ccc(Br)cc21)/N=c1\\[nH]nc(C2CCCO2)s1", "stereo": "configuration not stated", "Mtb cholesterol medium": 9.423, "Mtb glucose medium": 15.46}
{"compound": "Cc1ccc(CNC(=O)CN2CCOC(Cn3cncn3)C2)s1", "stereo": "configuration not stated", "Mtb cholesterol medium": 10.05, "Mtb glucose medium": 14.18}
{"compound": "CCC1CCC(CNC(=O)c2c[nH]c(=O)c(Cl)c2)CC1", "stereo": "configuration not stated", "Mtb cholesterol medium": "-12.69 and -3.684", "Mtb glucose medium": -10.84}
{"compound": "COCC(=O)N1CCCC1c1nc(O)cc(C(C)C)n1", "stereo": "configuration not stated", "Mtb cholesterol medium": -19.4, "Mtb glucose medium": -15.2}
{"compound": "CCN(CC)c1ncnc2c(C)nn(CC)c12", "Mtb cholesterol medium": -25.11, "Mtb glucose medium": 14.18}
{"compound": "Cc1ccccc1C(=O)N1CCOC(c2ncc(CN(C)C)[nH]2)C1", "stereo": "configuration not stated", "Mtb cholesterol medium": 11.94, "Mtb glucose medium": 10.79}
{"compound": "Clc1ccccc1OC1CN(CC2CCOC2)C1", "stereo": "configuration not stated", "Mtb cholesterol medium": -11.75, "Mtb glucose medium": 14.75}
{"compound": "CN(C)C1CN(C(=O)Nc2cccc(OC(F)F)c2)C1", "Mtb cholesterol medium": -4.667, "Mtb glucose medium": "-5.894 and -9.347"}
{"compound": "CN(C)C(=O)CN1CCC2(C1)CN(CC1CCOC1)C2.O=C(O)C(F)(F)F.O=C(O)C(F)(F)F", "stereo": "configuration not stated", "Mtb cholesterol medium": -12.76, "Mtb glucose medium": "-15.49 and -35.74"}
{"compound": "Cc1noc(C(C)N2CCN(CCOCC(F)(F)F)CC2)n1", "stereo": "configuration not stated", "Mtb cholesterol medium": 7.043, "Mtb glucose medium": -43.33}
{"compound": "CCC(O)Cn1cc(C2=CCN(Cc3ccc(OC)cc3)CC2)cn1", "stereo": "configuration not stated", "Mtb cholesterol medium": 19.94, "Mtb glucose medium": 0.5264}
{"compound": "CCC(C#N)NC(=O)c1ccc(Oc2cccnc2)cc1", "stereo": "configuration not stated", "Mtb cholesterol medium": "6.678 and -12.03", "Mtb glucose medium": -4.825}
{"compound": "Cc1csc(N2CCCN(C(=O)c3cccs3)CC2)n1", "Mtb cholesterol medium": 22.99, "Mtb glucose medium": "-5.387 and 4.414"}
{"compound": "CCOCC(O)CN1CCN(C(=O)c2cccnc2OC)CC1", "stereo": "configuration not stated", "Mtb cholesterol medium": -8.03, "Mtb glucose medium": -0.2999}
{"compound": "COc1c(C(=O)NCc2cccnc2)nnn1Cc1ccccc1", "Mtb cholesterol medium": -12.23, "Mtb glucose medium": 8.685}
{"compound": "Fc1ccccc1-c1nnn(CCCc2nn[nH]n2)n1", "Mtb cholesterol medium": 8.164, "Mtb glucose medium": 1.671}
{"compound": "CCc1nc(CN2CCCN(C(=O)Cc3cccs3)CC2)cs1", "Mtb cholesterol medium": 0.7796, "Mtb glucose medium": "16.53 and -4.485"}
{"compound": "CCSCCC(C)N(C)C(=O)c1cc(C)no1", "stereo": "configuration not stated", "Mtb cholesterol medium": 15.97, "Mtb glucose medium": -10.02}
{"compound": "O=C(Cn1ccc(=O)c2ccccc21)Nc1cnccc1O", "Mtb cholesterol medium": -33.36, "Mtb glucose medium": -54.04}
{"compound": "CCN(C(=O)NCCc1ccc(C)cc1C)C(C)CS(C)(=O)=O", "stereo": "configuration not stated", "Mtb cholesterol medium": -7.821, "Mtb glucose medium": 18.94}
{"compound": "O=C(c1nn[nH]c1Nc1cccc(Cl)c1)N1CCSCC1", "Mtb cholesterol medium": -6.676, "Mtb glucose medium": -22.3}

For reference, 5 entries once more:

- COc1ccccc1CN(C)C(=O)c1cc(CN2CCC(O)CC2)on1 | Mtb cholesterol medium: -22.2%; Mtb glucose medium: -2.895% and -8.283%
- Clc1ccccc1OC1CN(CC2CCOC2)C1 (configuration not stated) | Mtb cholesterol medium: -11.75%; Mtb glucose medium: 14.75%
- CCN(CC)c1ncnc2c(C)nn(CC)c12 | Mtb cholesterol medium: -25.11%; Mtb glucose medium: 14.18%
- COc1cc(C)nc(N2CCN(C(C)c3nc(C4CC4)no3)CC2)n1 (configuration not stated) | Mtb cholesterol medium: 12.25%; Mtb glucose medium: 20.27%
- CCC(C#N)NC(=O)c1ccc(Oc2cccnc2)cc1 (configuration not stated) | Mtb cholesterol medium: 6.678% and -12.03%; Mtb glucose medium: -4.825%

Source: ChEMBL document CHEMBL3988442, “University of Dundee, Small-Polar-MMV Screening Library” (2021).